T/C and survivor count data for 30 compounds are collected here from PubChem BioAssay AID248 (DTP/NCI, 2004).

This experiment has as its system L1210 leukemia ip in BDF1 mice, survival T/C. Put plainly: NCI In Vivo Anticancer Drug Screen. Data for tumor model L1210 Leukemia (intraperitoneal) in B6D2F1 (BDF1) mice. The following applies: T/C endpoint: mean survival time, higher T/C = longer survival.
[1] abbreviates: dose: 400.0 mg/kg/injection, schedule: Q04DX002 (ip), vehicle: Klucel (hydroxypropylcellulose) (HPC).
[2] abbreviates: dose: 200.0 mg/kg/injection, schedule: Q01DX001 (ip), vehicle: saline with Tween-80.
The mark [3] stands for this setting: dose: 400.0 mg/kg/injection, schedule: Q01DX001 (ip), vehicle: saline with Tween-80.
[4] abbreviates: dose: 400.0 mg/kg/injection, schedule: Q04DX003 (ip), vehicle: saline.
Setting [5] is: dose: 400.0 mg/kg/injection, schedule: Q04DX003 (ip), vehicle: Klucel (hydroxypropylcellulose) (HPC).
Setting [6] is: dose: 400.0 mg/kg/injection, schedule: Q01DX001 (ip), vehicle: saline.
Where [7] appears, read: dose: 400.0 mg/kg/injection, schedule: Q01DX009 (ip), vehicle: saline.
Setting [8] is: dose: 60.0 mg/kg/injection, schedule: Q01DX Z (ip), vehicle: methylcellulose (MC).

The list shows only some results of the screen, not a fair sample: it is rich in T/C values a quarter to a half above the control, in often repeated tests (any T/C) and in doses without a T/C. Further doses and runs are listed elsewhere. T/C is the treated group as % of the vehicle group. Some entries give survivors of the animals treated and no T/C: the source holds a T/C of zero for them, seemingly a mark for toxic or unscored doses. Some survivor counts are full or nearly so, which does not show that the dose was tolerated: survival well below the control is almost never listed, so the zero probably covers shortened survival too. Counts of survivors are from the toxicity check (mostly the fifth day) where no day follows; animals may have died later. Schedules are NCI's codes, read here as Q, the interval in days (D) or hours (H), X, the number of doses. Some schedules carry Z or #; the key to these is not given. Where survival is the endpoint, this PubChem deposit counts one and a half times the control or more as active, and values a quarter to a half above the control carry no call in these data; other NCI protocols may use other cut-offs. Some doses were run more than once; their values stand side by side, smallest first.

Consider `Nc1ncnc2c1ncn2C1SC(CO)C2OC21` (centres undefined), for which the T/C (dose: 100.0 mg/kg/injection, schedule: Q01DX005 (ip), vehicle: saline) was 138 % of control.
For `COC1OC(CI)C(OS(C)(=O)=O)C(OC(=O)c2ccccc2)C1OC(=O)c1ccccc1` (centres undefined), the survivor count under setting [1] is 3 of 3.
On to `CCOC(=O)c1[nH]c2ccsc2c1C[N+]1(C)CCCCC1`, for which the survivor count runs as follows: (dose: 50.0 mg/kg/injection, schedule: Q01DX001 (ip), vehicle: saline with Tween-80) 0 of 6; (dose: 100.0 mg/kg/injection, schedule: Q01DX001 (ip), vehicle: saline with Tween-80) 0 of 6; under setting [2], 0 of 6; under setting [3], 0 of 6.
As for `Nc1nc2ncc(CNc3cnc(C(=O)NC(CCC(=O)O)C(=O)O)nc3)nc2c(=O)[nH]1` (centres undefined), the T/C (dose: 75.0 mg/kg/injection, schedule: Q01DX009 (ip), vehicle: alkali diluted with saline) is 128 % of control. Also, under setting [3], the survivor count is 0 of 6.
Consider `C/C(=N/N=C(N)N)c1ccc(NC(=S)Nc2ccc(/C(C)=N/N=C(N)N)cc2)cc1`, for which the survivor count is listed as 1 of 6 (dose: 40.0 mg/kg/injection, schedule: Q01DX009 (ip), vehicle: water); 0 of 6 (dose: 80.0 mg/kg/injection, schedule: Q01DX009 (ip), vehicle: water); 0 of 6 (dose: 160.0 mg/kg/injection, schedule: Q01DX009 (ip), vehicle: water); 0 of 6 (dose: 320.0 mg/kg/injection, schedule: Q01DX009 (ip), vehicle: water).
For the compound `CS/C(N)=N/N=C(\N)SC`, the survivor count is, setting by setting: (dose: 100.0 mg/kg/injection, schedule: Q01DX009 (ip), vehicle: saline with Tween-80) 2 of 6; under setting [2], 2 of 6; under setting [3], 0 of 6.
As for `CC12c3ccccc3C(c3ccccc31)C1C(=O)OC(=O)C12` (centres undefined), the survivor count (dose: 400.0 mg/kg/injection, schedule: Q04DX003 (ip), vehicle: saline with Tween-80) was 4 of 6.
Turning to `Cc1ccc(NCc2ccccc2)cc1`, the survivor count (dose: 400.0 mg/kg/injection, schedule: Q04DX003 (ip), vehicle: other) is 2 of 6.
Regarding `C[N+](C)(C)CCCOC(=O)C1C2CC3OC(=O)C1C3C2` (centres undefined), the survivor count under setting [4] is on record as 1 of 3.
In the case of `Cn1cc([N+](=O)[O-])c2ccccc2c1=O`, under setting [5], the survivor count is listed as 0 of 6.
For the compound `c1ccc2c(c1)ccn1cnnc21`, the survivor count under setting [6] is given as 0 of 4.
With `O=C(O)C=C(CBr)CBr`, the survivor count reads like this: (dose: 75.0 mg/kg/injection, schedule: Q01DX001 (ip), vehicle: saline) 3 of 6; (dose: 150.0 mg/kg/injection, schedule: Q01DX001 (ip), vehicle: saline) 0 of 6; (dose: 300.0 mg/kg/injection, schedule: Q01DX001 (ip), vehicle: saline) 1 of 6.
With `CC1(C)C(=O)C(C)(C)C1O`, the survivor count under setting [6] is reported as 2 of 6.
Consider `CCN(C1CCCCC1)C1CCCCC1`, for which the survivor count was 2 of 6 (dose: 100.0 mg/kg/injection, schedule: Q01DX009 (ip), vehicle: saline); 0 of 6 (dose: 200.0 mg/kg/injection, schedule: Q01DX009 (ip), vehicle: saline); 0 of 6 under setting [7].
Consider `O=C(Nc1ccc(C(=O)Nc2cccc(C3=NCCN3)c2)cc1)Nc1ccc(C(=O)Nc2cccc(C3=NCCN3)c2)cc1`, for which the T/C (dose: 7.5 mg/kg/injection, schedule: Q01DX Z (ip), vehicle: methylcellulose (MC)) was 125 % of control; the T/C (dose: 15.0 mg/kg/injection, schedule: Q01DX Z (ip), vehicle: methylcellulose (MC)) is 133 and 140 % of control; the T/C (dose: 30.0 mg/kg/injection, schedule: Q01DX Z (ip), vehicle: methylcellulose (MC)) was 131 % of control; the T/C under setting [8] was 143 % of control. In addition, the survivor count runs as follows: under setting [8], 5 of 6; (dose: 120.0 mg/kg/injection, schedule: Q01DX Z (ip), vehicle: methylcellulose (MC)) 6 of 6.
`O=C(O)COc1nc(Cl)c(Cl)cc1Cl`: the survivor count under setting [1] is 0 of 3.
With `CC1([CH2][Hg][I])CS(=O)(=O)CC(C)([CH2][Hg][I])O1` (centres undefined), the survivor count reads like this: (dose: 100.0 mg/kg/injection, schedule: Q01DX001 (ip), vehicle: saline) 0 of 4; (dose: 200.0 mg/kg/injection, schedule: Q01DX001 (ip), vehicle: saline) 0 of 4; under setting [6], 0 of 4.
Take `NNC(=O)C1CC2C=CC1C2` (centres undefined): the survivor count under setting [7] is 1 of 6.
With `OCC1OC(n2cnc3c([Se])ncnc32)C(O)C1O` (centres undefined), the survivor count (dose: 200.0 mg/kg/injection, schedule: Q01DX005 (ip), vehicle: saline) is reported as 1 of 6.
On to `CCC(=O)Nc1cccc(Cl)c1`, for which the survivor count (dose: 400.0 mg/kg/injection, schedule: Q01DX009 (ip), vehicle: saline with Tween-80) is on record as 2 of 6.
As to `O=C(O)Cc1ccc2[nH]c3c(c2c1)CCCC3`, the survivor count (dose: 400.0 mg/kg/injection, schedule: Q01DX001 (ip), vehicle: steroid suspending solution) is 2 of 6.
For `CN(C)c1ccc(N=Nc2nccs2)cc1`, the survivor count (dose: 200.0 mg/kg/injection, schedule: Q04DX003 (ip), vehicle: saline with Tween-80) is 6 of 6.
With `OCCNC1c2ccccc2-c2ccccc21`, under setting [5], the survivor count is given as 1 of 6.
Consider `CCN(CC)C(=O)C1C2CC3OC(=O)C1C3C2` (centres undefined), for which, under setting [4], the survivor count is 0 of 4.
On to `CC(=O)ON1C(=O)c2cccc3cccc(c23)C1=O`, for which the survivor count (dose: 400.0 mg/kg/injection, schedule: Q04DX002 (ip), vehicle: saline with Tween-80) is on record as 1 of 3.
With `CNc1ncnc2c1c(Br)cn2C1OC(CO)C(O)C1O` (centres undefined), the survivor count is recorded as 2 of 4 (dose: 40.0 mg/kg/injection, schedule: Q01DX001 (ip), vehicle: saline) and 0 of 4 (dose: 80.0 mg/kg/injection, schedule: Q01DX001 (ip), vehicle: saline).
As to `CN1CCC2(CC1)C(=O)N(c1ccccc1)C(=O)C2c1ccccc1` (centres undefined), under “dose: 400.0 mg/kg/injection, schedule: Q01DX001 (ip), vehicle: Klucel (hydroxypropylcellulose) (HPC)”, the survivor count was 2 of 6.
Regarding `CCCC(CN)(CCN1CCOCC1)c1cccc2ccccc12` (centres undefined), the survivor count under setting [4] was 5 of 6.
On to `CCOP(=O)(OCC)c1ccc([N+](=O)[O-])cc1`, for which, under setting [6], the survivor count is 5 of 6.
As to `Cc1cc(C)c(CCO)c(C)c1`, the survivor count reads like this: (dose: 12.5 mg/kg/injection, schedule: Q01DX009 (ip), vehicle: DMSO) 6 of 6; (dose: 100.0 mg/kg/injection, schedule: Q04DX003 (ip), vehicle: DMSO) 4 of 6; (dose: 200.0 mg/kg/injection, schedule: Q04DX003 (ip), vehicle: DMSO) 1 of 6; (dose: 400.0 mg/kg/injection, schedule: Q04DX003 (ip), vehicle: DMSO) 1 of 6.
